Values from PubChem BioAssay AID743458 (Peter MacCallum Cancer Centre, 2014)
Screen: 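Identify genes whose loss lifts vorinostat resistance in colon cancer cells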 (follow-up of hits). Cells: human HCT116-VR colon cancer cells made resistant to vorinostat. Reagents: single siRNA or pool against human genes, 25 nM per single siRNA. Duration: about 72 h after transfection, including 24 h of drug. Treatment: vorinostat, 2.5 µM final, for 24 h. Measured: 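Live-cell fluorescent viability and luminescent caspase 3/7 activity after vorinostat treatment, background subtracted, mean of duplicate plates, as fold change over mock-transfected wells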. Reading the numbers: viability relative to mock: higher = more living cells than mock; caspase activity relative to mock: higher = more apoptosis than mock. Call rule: 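Active means a reduced-viability or caspase-activation class, anything else inactive; classes could only be given to wells that looked healthy when left untreated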.
The deposit covers about 1,800 reagents; shown is an unselected part. 732 of all reagents (41%) were called active. 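Calls are per siRNA reagent; a gene was deemed confirmed only if most of its four siRNAs scored.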 A number with no mark means an inactive call. Reagents against one gene are numbered here.

gene symbol	reagent no.	viability relative to mock	caspase activity relative to mock	viability hit class	caspase hit class
PTPRS (GeneID 5802)	1	0.62	2.36	no change	no change
PTPRS (GeneID 5802)	2	0.48 (active)	0.94	reduced viability	no change
PTPRS (GeneID 5802)	3	0.6	1.04	no change	no change
PTPRS (GeneID 5802)	4	0.94	1.13	no change	no change
PLAAT5 (GeneID 117245)	1	0.94	1.5	no change	no change
PLAAT5 (GeneID 117245)	2	0.76 (active)	4.29	no change	caspase activation
PLAAT5 (GeneID 117245)	3	0.87	1.26	no change	no change
PLAAT5 (GeneID 117245)	4	0.78	1.17	no change	no change
H1-5 (GeneID 3009)	1	0.73	2.12	no change	no change
H1-5 (GeneID 3009)	2	0.22 (active)	3.39	reduced viability	caspase activation
H1-5 (GeneID 3009)	3	0.29	2.1	no change	no change
H1-5 (GeneID 3009)	4	0.6 (active)	5.02	no change	caspase activation
POLR2G (GeneID 5436)	1	0.32 (active)	3.31	reduced viability	caspase activation
POLR2G (GeneID 5436)	2	0.54 (active)	3.38	reduced viability	caspase activation
POLR2G (GeneID 5436)	3	0.34 (active)	6.04	reduced viability	caspase activation
POLR2G (GeneID 5436)	4	0.36 (active)	3.04	reduced viability	caspase activation
C1RL (GeneID 51279)	1	0.83 (active)	3.21	no change	caspase activation
C1RL (GeneID 51279)	2	0.46 (active)	1.38	reduced viability	no change
C1RL (GeneID 51279)	3	0.76	1.03	no change	no change
C1RL (GeneID 51279)	4	0.84	2.5	no change	no change
RPS10 (GeneID 6204)	1	0.47 (active)	1.16	reduced viability	no change
RPS10 (GeneID 6204)	2	0.36 (active)	1.01	reduced viability	no change
RPS10 (GeneID 6204)	3	0.98	1.12	no change	no change
RPS10 (GeneID 6204)	4	0.26 (active)	1.38	reduced viability	no change
PPIAL4A (GeneID 653505)	1	0.82	2.12	no change	no change
PPIAL4A (GeneID 653505)	2	0.84	2.26	no change	no change
PPIAL4A (GeneID 653505)	3	0.7 (active)	2.93	no change	caspase activation
PPIAL4A (GeneID 653505)	4	1.02	1.01	no change	no change
PLVAP (GeneID 83483)	1	0.75 (active)	3.61	no change	caspase activation
PLVAP (GeneID 83483)	2	0.4 (active)	2.41	reduced viability	no change
PLVAP (GeneID 83483)	3	0.86	1.21	no change	no change
PLVAP (GeneID 83483)	4	0.94	0.99	no change	no change
ITGB1BP2 (GeneID 26548)	1	1.1	1	no change	no change
ITGB1BP2 (GeneID 26548)	2	1.04	1.83	no change	no change
ITGB1BP2 (GeneID 26548)	3	0.82	0.72	no change	no change
ITGB1BP2 (GeneID 26548)	4	0.83	2.25	no change	no change
SLC7A1 (GeneID 6541)	1	0.75	1.01	no change	no change
SLC7A1 (GeneID 6541)	2	0.77	2.05	no change	no change
SLC7A1 (GeneID 6541)	3	0.64	2.22	no change	no change
SLC7A1 (GeneID 6541)	4	0.44 (active)	1.47	reduced viability	no change
CNOT1 (GeneID 23019)	1	0.92 (active)	7.06	no change	caspase activation
CNOT1 (GeneID 23019)	2	0.83 (active)	5.25	no change	caspase activation
CNOT1 (GeneID 23019)	3	0.7 (active)	6.48	no change	caspase activation
CNOT1 (GeneID 23019)	4	0.78 (active)	8.43	no change	caspase activation
CNOT1 (GeneID 23019)	5	0.77 (active)	7.63	no change	caspase activation
ACVR1C (GeneID 130399)	1	0.72	2.44	no change	no change
ACVR1C (GeneID 130399)	2	0.86	0.91	no change	no change
ACVR1C (GeneID 130399)	3	0.81 (active)	4.61	no change	caspase activation
ACVR1C (GeneID 130399)	4	0.98	0.96	no change	no change
MTF2 (GeneID 22823)	1	1.09	2.36	no change	no change
MTF2 (GeneID 22823)	2	0.96	1.19	no change	no change
MTF2 (GeneID 22823)	3	0.88	1.12	no change	no change
MTF2 (GeneID 22823)	4	0.71	2.34	no change	no change
CHD4 (GeneID 1108)	1	0.94	2.13	no change	no change
CHD4 (GeneID 1108)	2	0.98	1	no change	no change
CHD4 (GeneID 1108)	3	0.92	2.17	no change	no change
CHD4 (GeneID 1108)	4	0.98	1.93	no change	no change

No new results follow: entries from further up.
gene symbol	reagent no.	viability relative to mock	caspase activity relative to mock	viability hit class	caspase hit class
H1-5 (GeneID 3009)	2	0.22 (active)	3.39	reduced viability	caspase activation
H1-5 (GeneID 3009)	3	0.29	2.1	no change	no change
H1-5 (GeneID 3009)	4	0.6 (active)	5.02	no change	caspase activation
POLR2G (GeneID 5436)	1	0.32 (active)	3.31	reduced viability	caspase activation
POLR2G (GeneID 5436)	2	0.54 (active)	3.38	reduced viability	caspase activation
POLR2G (GeneID 5436)	3	0.34 (active)	6.04	reduced viability	caspase activation
